Experimental findings from patent USRE49477 (THOMAS JEFFERSON UNIVERSITY, dated 2023) are described below.

The chains behind the UniProt entries cited, without tags or fusion partners. Where a name states a change or a piece, a line headed by the entry shows the natural chain unless it says otherwise.
UniProt P02452: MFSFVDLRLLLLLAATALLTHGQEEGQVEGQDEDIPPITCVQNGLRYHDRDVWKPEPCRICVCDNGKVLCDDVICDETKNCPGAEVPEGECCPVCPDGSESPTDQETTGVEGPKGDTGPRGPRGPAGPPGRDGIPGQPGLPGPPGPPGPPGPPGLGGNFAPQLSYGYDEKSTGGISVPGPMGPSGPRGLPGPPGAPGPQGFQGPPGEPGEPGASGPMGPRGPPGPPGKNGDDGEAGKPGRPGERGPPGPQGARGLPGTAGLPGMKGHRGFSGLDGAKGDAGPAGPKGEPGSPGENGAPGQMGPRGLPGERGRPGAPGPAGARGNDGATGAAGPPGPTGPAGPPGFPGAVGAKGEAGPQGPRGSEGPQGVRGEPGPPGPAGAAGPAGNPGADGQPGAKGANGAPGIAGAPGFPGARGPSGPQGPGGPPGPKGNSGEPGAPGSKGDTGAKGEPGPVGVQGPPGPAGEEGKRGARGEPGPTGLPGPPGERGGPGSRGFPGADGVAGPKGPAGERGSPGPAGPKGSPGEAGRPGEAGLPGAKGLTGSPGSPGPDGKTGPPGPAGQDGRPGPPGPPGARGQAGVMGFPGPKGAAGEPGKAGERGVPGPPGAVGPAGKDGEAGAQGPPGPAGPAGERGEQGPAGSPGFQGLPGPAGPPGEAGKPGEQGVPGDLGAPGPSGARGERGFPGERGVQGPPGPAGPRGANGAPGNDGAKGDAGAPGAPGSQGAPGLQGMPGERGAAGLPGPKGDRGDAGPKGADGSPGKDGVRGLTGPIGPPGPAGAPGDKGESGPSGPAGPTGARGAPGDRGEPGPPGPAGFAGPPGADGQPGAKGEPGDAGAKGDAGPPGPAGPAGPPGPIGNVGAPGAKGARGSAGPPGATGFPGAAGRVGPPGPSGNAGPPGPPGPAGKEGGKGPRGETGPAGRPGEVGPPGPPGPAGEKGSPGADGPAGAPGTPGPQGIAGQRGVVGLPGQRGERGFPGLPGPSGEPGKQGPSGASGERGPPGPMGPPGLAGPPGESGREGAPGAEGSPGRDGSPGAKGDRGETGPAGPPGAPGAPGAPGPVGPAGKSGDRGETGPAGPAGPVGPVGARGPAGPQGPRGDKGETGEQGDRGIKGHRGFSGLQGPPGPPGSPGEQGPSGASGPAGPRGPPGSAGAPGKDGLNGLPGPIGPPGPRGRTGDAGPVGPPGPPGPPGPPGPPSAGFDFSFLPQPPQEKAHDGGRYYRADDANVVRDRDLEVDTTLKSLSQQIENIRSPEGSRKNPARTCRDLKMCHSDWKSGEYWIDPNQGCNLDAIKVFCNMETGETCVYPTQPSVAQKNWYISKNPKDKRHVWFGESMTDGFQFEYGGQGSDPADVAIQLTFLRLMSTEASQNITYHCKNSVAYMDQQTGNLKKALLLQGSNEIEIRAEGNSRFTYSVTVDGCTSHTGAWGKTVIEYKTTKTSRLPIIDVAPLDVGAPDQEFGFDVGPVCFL
UniProt P08123: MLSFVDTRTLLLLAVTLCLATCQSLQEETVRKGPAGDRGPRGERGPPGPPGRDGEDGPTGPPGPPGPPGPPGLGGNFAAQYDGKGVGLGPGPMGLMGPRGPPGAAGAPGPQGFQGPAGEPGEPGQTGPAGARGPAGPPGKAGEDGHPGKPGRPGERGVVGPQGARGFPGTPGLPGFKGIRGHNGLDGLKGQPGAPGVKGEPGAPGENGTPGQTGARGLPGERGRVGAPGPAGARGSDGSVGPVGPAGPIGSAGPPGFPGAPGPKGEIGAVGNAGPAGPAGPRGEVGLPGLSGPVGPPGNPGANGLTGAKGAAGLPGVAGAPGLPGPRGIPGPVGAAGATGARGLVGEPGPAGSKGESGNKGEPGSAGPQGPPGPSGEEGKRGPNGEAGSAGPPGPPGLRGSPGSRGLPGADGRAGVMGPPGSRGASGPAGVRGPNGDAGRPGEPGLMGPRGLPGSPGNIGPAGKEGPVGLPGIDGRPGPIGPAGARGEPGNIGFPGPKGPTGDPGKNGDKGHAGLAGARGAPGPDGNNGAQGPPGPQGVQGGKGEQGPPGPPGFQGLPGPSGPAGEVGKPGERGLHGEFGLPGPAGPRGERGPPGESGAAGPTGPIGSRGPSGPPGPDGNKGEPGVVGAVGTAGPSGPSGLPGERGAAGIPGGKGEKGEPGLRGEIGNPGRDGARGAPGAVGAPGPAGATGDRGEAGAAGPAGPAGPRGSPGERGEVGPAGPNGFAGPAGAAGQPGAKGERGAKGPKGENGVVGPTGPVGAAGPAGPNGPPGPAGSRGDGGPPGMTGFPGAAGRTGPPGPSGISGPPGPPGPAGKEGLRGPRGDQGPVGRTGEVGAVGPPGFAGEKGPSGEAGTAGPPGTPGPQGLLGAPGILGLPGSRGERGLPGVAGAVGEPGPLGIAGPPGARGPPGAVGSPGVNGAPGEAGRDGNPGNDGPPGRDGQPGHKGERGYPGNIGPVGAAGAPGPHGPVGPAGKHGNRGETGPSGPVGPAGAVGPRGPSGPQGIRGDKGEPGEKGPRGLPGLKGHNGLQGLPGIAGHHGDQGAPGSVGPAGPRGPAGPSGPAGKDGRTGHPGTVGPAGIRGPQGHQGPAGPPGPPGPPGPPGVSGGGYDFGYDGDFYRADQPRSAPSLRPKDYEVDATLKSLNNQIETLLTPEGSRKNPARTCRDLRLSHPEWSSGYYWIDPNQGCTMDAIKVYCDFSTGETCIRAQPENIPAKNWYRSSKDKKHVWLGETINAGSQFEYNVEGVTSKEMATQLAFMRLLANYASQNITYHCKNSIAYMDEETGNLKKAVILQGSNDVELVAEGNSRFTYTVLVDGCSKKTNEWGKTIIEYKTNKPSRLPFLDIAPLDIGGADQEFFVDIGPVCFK

In this assay the target is purified human procollagen I (human) (UniProt P02452+P08123). As to the kind of experiment: SensiQ Pioneer biosensor, procollagen I immobilized.

Results are given in words; binding and its absence hold for the method and conditions named. Some results given as binding are weak or reduced against the parent protein; the word gives no strength. Sequences can lack the tags named with a protein.

B1: bacterial-derived scFv variant (anti-α2Ct single chain antibody, FLAG-tagged) (scFv)
scFv: MDIVMSQSPSSLAVSAGEKVTMSCKSSQSLLNSRTRKNNLAWYQQKPGQSPKLLIYWASTRESGVPDRFTGSGSGTDFTLTISSVQAEDLAVYYCKQSYNLWTFGGGTKLEIKVDGGGGSGGGGSGGGGSLEQIQLVQSGPELKKPGETVKISCKASGYTFTDYPLHWVKQAPGKGLQWMAWINTETGEPTYADDFTGRFAFSLETSASTAYLQINNLKNEDTATYFCVRGYYYYWGQGTTLSVSSDYKDDDDK
In the case of B1, the binding entry is “binds”.

B2: original anti-α2Ct mouse IgA antibody (antibody, V domains shown)
VH: QIQLVQSGPELKKPGETVKISCKASGYTFTDYPLHWVKQAPGKGLQWMAWINTETGEPTYADDFTGRFAFSLETSASTAYLQINNLKNEDTATYFCVRGYYYYWGQGTTLSVSS
VL: DIVMSQSPSSLAVSAGEKVTMSCKSSQSLLNSRTRKNNLAWYQQKPGQSPKLLIYWASTRESGVPDRFTGSGSGTDFTLTISSVQAEDLAVYYCKQSYNLWTFGGGTKLEIKR
In the case of B2, the binding result was “binds”.

B3: mouse-human chimeric IgG consisting of the mVH-hγ and mVL-hκ chains (antibody, V domains shown)
VH: B2 VH
VL: B2 VL
notes: The constant regions are human IgG1 γ (pFUSE-CHIg-hG1) and human κ (pFUSE2-CLIg-hk); The antibody was expressed in CHO cells and purified on Protein-L; also called chimeric antibody; CHO-IgG
Consider B3, for which the binding result is on record as “binds”.
